Laboratory results: article doi:10.1101/2020.05.06.080465
Results are given in words; binding and its absence hold for the method and conditions named. Some binding calls cover weakened binding; strength is not graded here.

Target: NEDD8 activating complex NAE1-UBA3 (human (endogenous in HeLa)) (UniProt Q13564+Q8TBC4)
Test: SEC

binding: binds
B1: ASB6 (protein, UniProt Q9NWX5 1-421)
chain: MPFLHGFRRIIFEYQPLVDAILGSLGIQDPERQESLDRPSYVASEESRILVLTELLERKAHSPFYQEGVSNALLKMAELGLTRAADVLLRHGANLNFEDPVTYYTALHIAVLRNQPDMVELLVHHGADVNRRDRIHESSPLDLASEEPERLPCLQRLLDLGADVNAADKHGKTALLHALASSDGVQIHNTENIRLLLEGGADVKATTKDGDTVFTCIIFLLGETVGGDKEEAQMINRFCFQVTRLLLAHGADPSECPAHESLTHICLKSFKLHFPLLRFLLESGAAYNCSLHGASCWSGFHIIFERLCSHPGCTEDESHADLLRKAETVLDLMVTNSQKLQLPENFDIHPVGSLAEKIQALHFSLRQLESYPPPLKHLCRVAIRLYLQPWPVDVKVKALPLPDRLKWYLLSEHSGSVEDDI
